The values that follow come from patent US6635429.

Chains of the proteins cited; added tags and fusions are not shown. A line that says so, or that is headed by a name, gives the form on record, which may keep a tag or linker. Residues count along the entry.
UniProt P28700, 140-467, stated change not applied: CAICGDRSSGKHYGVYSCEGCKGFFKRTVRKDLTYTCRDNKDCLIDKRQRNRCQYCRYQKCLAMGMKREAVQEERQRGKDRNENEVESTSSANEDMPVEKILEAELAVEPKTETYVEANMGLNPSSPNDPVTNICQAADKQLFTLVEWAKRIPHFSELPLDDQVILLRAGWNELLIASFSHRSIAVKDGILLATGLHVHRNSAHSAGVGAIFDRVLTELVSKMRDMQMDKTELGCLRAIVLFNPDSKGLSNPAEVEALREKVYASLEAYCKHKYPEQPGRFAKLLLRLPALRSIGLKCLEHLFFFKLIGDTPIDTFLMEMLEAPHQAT
RARα1/RXRα heterodimer (yeast) (Homo sapiens/Mus musculus), one chain, as listed by the source: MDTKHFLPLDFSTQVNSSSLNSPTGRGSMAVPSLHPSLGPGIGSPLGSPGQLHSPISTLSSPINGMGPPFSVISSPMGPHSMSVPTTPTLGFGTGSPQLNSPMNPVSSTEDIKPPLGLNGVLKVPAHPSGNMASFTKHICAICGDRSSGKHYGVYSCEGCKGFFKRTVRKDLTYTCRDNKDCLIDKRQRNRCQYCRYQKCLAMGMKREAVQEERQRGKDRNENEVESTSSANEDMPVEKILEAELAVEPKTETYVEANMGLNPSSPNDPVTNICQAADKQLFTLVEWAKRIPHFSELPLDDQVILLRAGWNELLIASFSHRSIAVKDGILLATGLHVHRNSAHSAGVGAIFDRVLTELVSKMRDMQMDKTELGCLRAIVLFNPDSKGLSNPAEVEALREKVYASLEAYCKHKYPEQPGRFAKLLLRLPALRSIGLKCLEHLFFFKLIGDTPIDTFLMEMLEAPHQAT
RARα1/dnRXRα (yeast) (Homo sapiens/Mus musculus), one chain, as listed by the source: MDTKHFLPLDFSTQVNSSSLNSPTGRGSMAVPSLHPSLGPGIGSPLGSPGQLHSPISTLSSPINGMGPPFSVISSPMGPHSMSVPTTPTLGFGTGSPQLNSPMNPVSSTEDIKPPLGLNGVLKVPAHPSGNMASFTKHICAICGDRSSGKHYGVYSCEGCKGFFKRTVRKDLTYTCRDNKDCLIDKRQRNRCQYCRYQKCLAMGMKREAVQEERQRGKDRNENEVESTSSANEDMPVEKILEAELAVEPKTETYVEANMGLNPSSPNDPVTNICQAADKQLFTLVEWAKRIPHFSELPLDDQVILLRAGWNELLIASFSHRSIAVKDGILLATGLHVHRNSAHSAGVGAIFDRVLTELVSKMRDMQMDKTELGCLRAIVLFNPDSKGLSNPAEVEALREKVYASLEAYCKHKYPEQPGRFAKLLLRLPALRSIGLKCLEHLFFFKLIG

For part of these data: Weaker means in comparison with the reference protein, sequence or condition of that experiment. For part of these data: Protein sequences can lack the tags named with them. For part of these data: Where cells or extracts were used, other partners may take part. For part of these data: No signal at the amounts used counts as a negative.

Data set [1] has as its target T1, RARα1 (yeast) (Homo sapiens) (UniProt P10276).
T1 sequence (looked up): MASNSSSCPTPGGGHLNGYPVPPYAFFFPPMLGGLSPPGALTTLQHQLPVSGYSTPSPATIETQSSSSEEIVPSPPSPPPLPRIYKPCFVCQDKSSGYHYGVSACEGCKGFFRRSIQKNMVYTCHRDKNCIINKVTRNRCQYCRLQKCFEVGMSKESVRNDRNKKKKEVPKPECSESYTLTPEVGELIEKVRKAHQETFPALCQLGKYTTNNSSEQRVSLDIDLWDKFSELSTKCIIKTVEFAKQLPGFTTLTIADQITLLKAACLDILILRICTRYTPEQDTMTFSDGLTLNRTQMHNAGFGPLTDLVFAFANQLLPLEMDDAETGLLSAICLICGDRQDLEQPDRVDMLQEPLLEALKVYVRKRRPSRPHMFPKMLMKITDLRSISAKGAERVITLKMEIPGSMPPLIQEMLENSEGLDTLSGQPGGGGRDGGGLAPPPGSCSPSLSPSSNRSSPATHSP
Nature of the data set: EMSA. The settings on record: data not shown; protein in an extract; protein details: yeast-expressed. For orientation: Mobility shift assays separate free from complexed probe on a gel.

For data set [2], the system named is RARα1/RXRα heterodimer (yeast) (Homo sapiens/Mus musculus). Nature of the data set: EMSA. The settings on record: protein in an extract, protein details: yeast-expressed.
The target in data set [3] is RXRα (yeast) (Mus musculus) (UniProt P28700). Description: EMSA. The conditions noted are these: protein in an extract, protein details: yeast-expressed.
Data set [4] has as its target RXRαΔAB (Mus musculus) (UniProt P28700). Nature of the data set: activity in cells. The conditions noted are these: yeast; comparable to full length; protein in cells; protein details: yeast-expressed; only the site is given.
In data set [5] the test system is RARα1/dnRXRα (yeast) (Homo sapiens/Mus musculus). Nature of the data set: EMSA. The settings on record: retains enhancement of RARα binding; protein in an extract; protein details: yeast-expressed.
Data set [6] concerns the target T1, RARα1 (yeast) (Homo sapiens). Nature of the data set: activity in cells. The settings on record: all-trans or 9-cis RA, protein in an extract, protein details: yeast-expressed, only the site is given.
Data set [7] deals with RXRα (yeast) (Mus musculus) (UniProt P28700). Description: activity in cells. The settings on record: 9-cis RA, protein in an extract, protein details: yeast-expressed, only the site is given.

AGGTCAGAGGTCA (double strand) [DR1]: the results for the binding result in data set [1], in data set [2] (efficient) and in data set [3] (weak homodimer shift after prolonged autoradiography) were “no binding”, “binds” and “binds more weakly”, respectively. The “activity on this sequence” value in data set [4] is recorded as “active”.

As for AGGTCAGCAGGTCA (double strand) [DR2], the binding result is “no binding” in data set [1]; “binds more weakly” in data set [2] (spacer and flank dependent); “no binding” in data set [3] (data not shown).

For AGGTCAGCGAAGGTCA (double strand) [DR4], the binding result in data set [1] is on record as “no binding”; in data set [2], “binds more weakly”; in data set [3] (data not shown), “no binding”.

For AGGTCAGCGAGAGGTCA (double strand) [DR5], the binding result is reported as “binds” in data set [2] (efficient, supershift by anti-RARα) and “binds” in data set [5]. Further, the “activity on this sequence” value in data set [6] and in data set [7] was “less active” throughout.

Consider AGGTCAGCGAGGTCA (double strand) [DR3], for which the binding result in data set [1] is on record as “no binding”; in data set [2] it was “binds more weakly”; in data set [3] (data not shown) it was “no binding”.

For AGGTCATGACCT (double strand) [IR0], in data set [2] (after prolonged autoradiography), the binding result is on record as “binds more weakly”.
